Results reported in publication PMC6322289.
Results are given in words; binding and its absence hold for the method and conditions named. A result given as binding can be weak or reduced; the word gives no strength.

Target: chitinase (Hevea brasiliensis (endogenous in latex of clone CATAS7-33-97))
Experiment: SEC; clarified B-serum on Sephacryl S-200HR (70 x 2.6 cm), eluted with 50 mM Tris-HCl + 25 mM NaCl, pH 7.2; peaks read by Tricine-SDS-PAGE and western blotting; control elution at pH 5.5

B1: pro-hevein (protein, UniProt P02877 18-204)
chain: EQCGRQAGGKLCPNNLCCSQWGWCGSTDEYCSPDHNCQSNCKDSGEGVGGGSASNVLATYHLYNSQDHGWDLNAASAYCSTWDANKPYSWRSKYGWTAFCGPVGAHGQSSCGKCLSVTNTGTGAKTTVRIVDQCSNGGLDLDVNVFRQLDTDGKGYERGHITVNYQFVDCGDSFNPLFSVMKSSVIN
binding: binds
